This passage reports binding results from publication doi:10.1101/2023.10.14.562322.

By UniProt entry, the sequences of proteins in these tests, tags left out. Where a name states a change or a piece, a line headed by the entry shows the natural chain unless it says otherwise.
UniProt Q9Y262, whole entry: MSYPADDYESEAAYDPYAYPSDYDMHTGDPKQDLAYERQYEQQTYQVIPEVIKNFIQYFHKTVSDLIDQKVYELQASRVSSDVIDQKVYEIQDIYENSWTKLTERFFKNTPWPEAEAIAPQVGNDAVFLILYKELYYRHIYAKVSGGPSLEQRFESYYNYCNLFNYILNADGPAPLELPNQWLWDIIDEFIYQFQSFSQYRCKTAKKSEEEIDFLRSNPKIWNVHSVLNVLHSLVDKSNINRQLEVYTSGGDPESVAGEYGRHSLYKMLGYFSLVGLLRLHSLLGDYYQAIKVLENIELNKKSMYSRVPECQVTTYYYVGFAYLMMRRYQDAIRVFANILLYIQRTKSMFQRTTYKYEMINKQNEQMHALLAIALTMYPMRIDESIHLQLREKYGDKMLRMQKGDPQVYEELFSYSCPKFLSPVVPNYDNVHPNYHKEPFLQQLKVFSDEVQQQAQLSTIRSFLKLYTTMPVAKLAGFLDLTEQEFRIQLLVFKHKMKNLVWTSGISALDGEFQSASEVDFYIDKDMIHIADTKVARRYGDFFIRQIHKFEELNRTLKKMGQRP
UniProt O15371, whole entry: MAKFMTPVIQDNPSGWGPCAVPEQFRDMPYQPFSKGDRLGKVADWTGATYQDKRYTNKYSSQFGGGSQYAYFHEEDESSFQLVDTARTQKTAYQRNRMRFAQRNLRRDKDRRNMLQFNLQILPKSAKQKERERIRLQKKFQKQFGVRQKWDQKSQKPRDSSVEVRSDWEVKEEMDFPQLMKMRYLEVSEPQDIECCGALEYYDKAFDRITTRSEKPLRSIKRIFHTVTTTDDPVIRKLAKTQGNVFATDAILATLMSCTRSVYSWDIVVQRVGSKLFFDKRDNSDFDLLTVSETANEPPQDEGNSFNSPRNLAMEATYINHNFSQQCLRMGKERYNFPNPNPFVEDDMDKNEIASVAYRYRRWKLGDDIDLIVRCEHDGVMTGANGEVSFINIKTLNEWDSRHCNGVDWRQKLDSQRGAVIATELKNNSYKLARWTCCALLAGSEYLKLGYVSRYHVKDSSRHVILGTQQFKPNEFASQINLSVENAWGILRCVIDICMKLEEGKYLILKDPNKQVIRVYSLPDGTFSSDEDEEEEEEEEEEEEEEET
UniProt O75821, whole entry: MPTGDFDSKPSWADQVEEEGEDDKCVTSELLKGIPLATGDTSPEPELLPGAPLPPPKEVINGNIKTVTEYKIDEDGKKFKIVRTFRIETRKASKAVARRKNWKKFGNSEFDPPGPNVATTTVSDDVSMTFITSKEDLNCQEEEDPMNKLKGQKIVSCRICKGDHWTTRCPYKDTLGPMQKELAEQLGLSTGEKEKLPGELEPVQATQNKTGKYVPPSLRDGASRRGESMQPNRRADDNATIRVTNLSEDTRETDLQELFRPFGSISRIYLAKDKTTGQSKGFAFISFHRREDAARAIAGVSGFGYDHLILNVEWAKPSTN
UniProt O60573, whole entry: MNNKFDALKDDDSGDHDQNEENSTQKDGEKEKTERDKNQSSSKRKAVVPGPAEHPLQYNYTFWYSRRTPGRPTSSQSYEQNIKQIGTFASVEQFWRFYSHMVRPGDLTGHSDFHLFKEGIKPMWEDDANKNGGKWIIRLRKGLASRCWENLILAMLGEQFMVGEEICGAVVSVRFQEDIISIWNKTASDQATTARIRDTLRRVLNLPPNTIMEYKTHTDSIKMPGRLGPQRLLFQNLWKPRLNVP

Test [1] concerns the target T1, v5-GIGYF1 (full-length human GIGYF1) (human) (UniProt O75420).
T1 sequence: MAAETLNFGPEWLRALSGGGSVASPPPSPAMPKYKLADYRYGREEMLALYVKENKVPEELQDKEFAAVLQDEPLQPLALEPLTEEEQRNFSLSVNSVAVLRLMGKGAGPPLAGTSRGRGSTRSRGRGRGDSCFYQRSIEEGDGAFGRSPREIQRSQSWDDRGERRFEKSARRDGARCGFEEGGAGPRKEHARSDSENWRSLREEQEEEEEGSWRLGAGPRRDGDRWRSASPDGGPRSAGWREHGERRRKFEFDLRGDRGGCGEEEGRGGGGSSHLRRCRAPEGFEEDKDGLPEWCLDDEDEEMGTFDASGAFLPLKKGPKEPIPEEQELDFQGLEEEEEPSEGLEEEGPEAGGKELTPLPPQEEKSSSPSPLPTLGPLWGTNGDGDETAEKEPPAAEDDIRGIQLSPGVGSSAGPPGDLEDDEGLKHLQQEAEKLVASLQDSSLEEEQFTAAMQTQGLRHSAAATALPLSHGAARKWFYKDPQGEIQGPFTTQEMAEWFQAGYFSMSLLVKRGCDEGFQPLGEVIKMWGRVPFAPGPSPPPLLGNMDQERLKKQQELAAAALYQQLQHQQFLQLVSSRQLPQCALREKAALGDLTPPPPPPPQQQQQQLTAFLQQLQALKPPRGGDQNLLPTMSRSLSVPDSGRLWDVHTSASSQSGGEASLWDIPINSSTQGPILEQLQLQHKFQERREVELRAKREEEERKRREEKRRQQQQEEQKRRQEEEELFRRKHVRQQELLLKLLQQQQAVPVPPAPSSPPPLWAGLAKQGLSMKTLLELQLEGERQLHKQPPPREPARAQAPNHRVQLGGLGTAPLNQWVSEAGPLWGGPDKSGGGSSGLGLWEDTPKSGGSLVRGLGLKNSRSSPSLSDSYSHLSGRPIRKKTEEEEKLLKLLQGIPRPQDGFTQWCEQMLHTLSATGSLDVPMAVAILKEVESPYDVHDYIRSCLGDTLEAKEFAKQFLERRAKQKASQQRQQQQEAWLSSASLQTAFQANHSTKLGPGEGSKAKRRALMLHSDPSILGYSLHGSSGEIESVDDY
The test is described as follows: co-IP.

The target in test [2] is T2, v5-GIGYF1-Mut (4EHP-binding mutant GIGYF1; Y39A, Y41A, M46A, L47A) (human) (UniProt O75420).
T2 sequence: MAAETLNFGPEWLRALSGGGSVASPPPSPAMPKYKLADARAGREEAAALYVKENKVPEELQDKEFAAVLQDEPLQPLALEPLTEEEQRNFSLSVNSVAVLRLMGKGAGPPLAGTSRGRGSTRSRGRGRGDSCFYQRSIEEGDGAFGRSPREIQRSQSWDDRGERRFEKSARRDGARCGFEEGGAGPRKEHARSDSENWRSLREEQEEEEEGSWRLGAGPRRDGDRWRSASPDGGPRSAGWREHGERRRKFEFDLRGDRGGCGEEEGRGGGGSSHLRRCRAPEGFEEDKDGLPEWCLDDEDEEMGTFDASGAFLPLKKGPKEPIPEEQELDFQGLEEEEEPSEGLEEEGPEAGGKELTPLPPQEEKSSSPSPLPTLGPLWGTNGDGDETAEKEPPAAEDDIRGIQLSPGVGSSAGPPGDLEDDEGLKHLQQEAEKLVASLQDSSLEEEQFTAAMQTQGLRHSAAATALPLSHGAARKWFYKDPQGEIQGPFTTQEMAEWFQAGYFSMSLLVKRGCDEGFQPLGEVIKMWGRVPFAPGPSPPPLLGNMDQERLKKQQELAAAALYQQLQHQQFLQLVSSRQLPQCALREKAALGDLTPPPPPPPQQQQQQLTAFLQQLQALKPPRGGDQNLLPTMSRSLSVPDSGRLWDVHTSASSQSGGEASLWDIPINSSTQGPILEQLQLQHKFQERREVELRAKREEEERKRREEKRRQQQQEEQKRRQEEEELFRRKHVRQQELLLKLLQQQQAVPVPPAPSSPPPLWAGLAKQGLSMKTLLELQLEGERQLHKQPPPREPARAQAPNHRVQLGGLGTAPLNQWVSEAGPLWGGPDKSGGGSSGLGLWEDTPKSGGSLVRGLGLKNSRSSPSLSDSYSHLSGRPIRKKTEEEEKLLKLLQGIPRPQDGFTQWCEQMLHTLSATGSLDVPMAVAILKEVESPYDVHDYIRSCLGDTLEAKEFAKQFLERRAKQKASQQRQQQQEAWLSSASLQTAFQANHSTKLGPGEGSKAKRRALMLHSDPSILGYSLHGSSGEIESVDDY
The test is described as follows: co-IP.

Test [3] addresses FLAG-eIF3L (UniProt Q9Y262). The test is described as follows: co-IP.
In another test the target is FLAG-eIF3D (UniProt O15371). The test is described as follows: proximity ligation.
A further test has as its target FLAG-eIF3G (UniProt O75821). The test is described as follows: proximity ligation.
For test [4], the target named is FLAG-eIF3L (UniProt Q9Y262). The test is described as follows: proximity ligation.

No constants are given. Whether binding was seen depends on the method and setting. In cells and extracts the contact can be indirect. Some entries that bind do so weakly or less than the wild type. Tags and fused reporters may be left off the sequences shown.

Regarding HA-4EHP (from UniProt O60573 1-245), the results for the binding result in test [1] and in test [2] were “binds” and “no binding”, respectively.

B1: v5-GIGYF1 (full-length human GIGYF1) (protein, UniProt O75420 1-1035)
chain: MAAETLNFGPEWLRALSGGGSVASPPPSPAMPKYKLADYRYGREEMLALYVKENKVPEELQDKEFAAVLQDEPLQPLALEPLTEEEQRNFSLSVNSVAVLRLMGKGAGPPLAGTSRGRGSTRSRGRGRGDSCFYQRSIEEGDGAFGRSPREIQRSQSWDDRGERRFEKSARRDGARCGFEEGGAGPRKEHARSDSENWRSLREEQEEEEEGSWRLGAGPRRDGDRWRSASPDGGPRSAGWREHGERRRKFEFDLRGDRGGCGEEEGRGGGGSSHLRRCRAPEGFEEDKDGLPEWCLDDEDEEMGTFDASGAFLPLKKGPKEPIPEEQELDFQGLEEEEEPSEGLEEEGPEAGGKELTPLPPQEEKSSSPSPLPTLGPLWGTNGDGDETAEKEPPAAEDDIRGIQLSPGVGSSAGPPGDLEDDEGLKHLQQEAEKLVASLQDSSLEEEQFTAAMQTQGLRHSAAATALPLSHGAARKWFYKDPQGEIQGPFTTQEMAEWFQAGYFSMSLLVKRGCDEGFQPLGEVIKMWGRVPFAPGPSPPPLLGNMDQERLKKQQELAAAALYQQLQHQQFLQLVSSRQLPQCALREKAALGDLTPPPPPPPQQQQQQLTAFLQQLQALKPPRGGDQNLLPTMSRSLSVPDSGRLWDVHTSASSQSGGEASLWDIPINSSTQGPILEQLQLQHKFQERREVELRAKREEEERKRREEKRRQQQQEEQKRRQEEEELFRRKHVRQQELLLKLLQQQQAVPVPPAPSSPPPLWAGLAKQGLSMKTLLELQLEGERQLHKQPPPREPARAQAPNHRVQLGGLGTAPLNQWVSEAGPLWGGPDKSGGGSSGLGLWEDTPKSGGSLVRGLGLKNSRSSPSLSDSYSHLSGRPIRKKTEEEEKLLKLLQGIPRPQDGFTQWCEQMLHTLSATGSLDVPMAVAILKEVESPYDVHDYIRSCLGDTLEAKEFAKQFLERRAKQKASQQRQQQQEAWLSSASLQTAFQANHSTKLGPGEGSKAKRRALMLHSDPSILGYSLHGSSGEIESVDDY
On to B1, for which the binding entry with FLAG-eIF3L [3], with FLAG-eIF3D, in the test with FLAG-eIF3G and with FLAG-eIF3L [4] was “binds” throughout.
